# Counter-ions that a name gives are not always drawn. Some of the results follow. Single values are uncertain here, since repeats match poorly.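 The cells were human embryonic kidney cells carrying a Renilla luciferase gene, driven by the HSV-TK promoter, on a plasmid put in briefly by transfection. This is the first-round screen of about ten thousand compounds, looking for ones that raise reporter output.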
# Tested on: HEK 293FT
# Test: log relative Renilla luciferase luminescence (reporter expression vs reference, reference not stated) (log (base not stated)); higher = higher recombinant reporter expression
# Conditions: 10 µM; time after transfection 48 h
row,Compound,log
1,CCCN(CCC)C1CCc2cccc(O)c2C1 (stereo not drawn) [8-Hydroxy-DPAT hydrobromide],-0.00324
2,C[C@@H]1CC[C@H]2[C@@H](C)C(=O)O[C@@H]3O[C@@]4(C)CC[C@@H]1[C@]32OO4 [Artemisinin],-0.00359
3,CC(C)(C)OC(=O)c1ncn2c1[C@@H]1CCCN1C(=O)c1c(Br)cccc1-2 [Bretazenil],0.125
4,N[C@@H]1C[C@H]1c1ccccc1 [Tranylcypromine hydrochloride],-0.0949
5,CCN(CC)CCO[C@H]1CC[C@@]2(C)C(=CC[C@@H]3[C@@H]2CC[C@]2(C)C(=O)CC[C@@H]32)C1,0.0669
6,O=C(O)c1ccc2[nH]cc(CCCCN3CC=C(c4ccccc4)CC3)c2c1 [Carmoxirole hydrochloride],-0.0811
7,Cc1ccc(C[N+](C)(C)C)o1 [5-Methylfurmethiodide],0.0168
8,Cn1cc(C(=O)C(=O)N[C@H]2CN3CCC2CC3)c2ccccc21,-0.00108
9,COc1ccc(-n2nc(C(F)(F)F)cc2-c2ccc(Cl)cc2)cc1,0.207
10,C[C@@H]1O[C@@H](O[C@H]2C[C@@H](O)[C@]3(CO)[C@H]4[C@H](O)C[C@]5(C)[C@@H](C6=CC(=O)OC6)CC[C@]5(O)[C@@H]4CC[C@]3(O)C2)[C@H](O)[C@H](O)[C@H]1O [Ouabain],-1.61
11,NP(N)(=O)NC(=O)c1ccc(F)cc1 [Flurofamide],0.128
12,O=[N+]([O-])c1cc(O)c(O)c([N+](=O)[O-])c1,0.0941
13,CNCCc1cnc[nH]1 [N α-Methylhistamine dihydrochloride],0.027

# Numbers 10–12, quoted:
row,Compound,log
10,C[C@@H]1O[C@@H](O[C@H]2C[C@@H](O)[C@]3(CO)[C@H]4[C@H](O)C[C@]5(C)[C@@H](C6=CC(=O)OC6)CC[C@]5(O)[C@@H]4CC[C@]3(O)C2)[C@H](O)[C@H](O)[C@H]1O [Ouabain],-1.61
11,NP(N)(=O)NC(=O)c1ccc(F)cc1 [Flurofamide],0.128
12,O=[N+]([O-])c1cc(O)c(O)c([N+](=O)[O-])c1,0.0941
